Whole data set: some 33,000 sequences, median “E-score (-0.5 to 0.5)” near -0.0034, cut for the highest 2% near 0.25. Some of the results follow.
The sequences below were run against T1, Yap3 (UniProt P38749) (assay: PBM E-score (8-mer binding enrichment) (E-score (-0.5 to 0.5)); higher = stronger / more preferred TF binding). Conditions: protein concentration: 100 nM; construct: GST-full length.
T1 sequence: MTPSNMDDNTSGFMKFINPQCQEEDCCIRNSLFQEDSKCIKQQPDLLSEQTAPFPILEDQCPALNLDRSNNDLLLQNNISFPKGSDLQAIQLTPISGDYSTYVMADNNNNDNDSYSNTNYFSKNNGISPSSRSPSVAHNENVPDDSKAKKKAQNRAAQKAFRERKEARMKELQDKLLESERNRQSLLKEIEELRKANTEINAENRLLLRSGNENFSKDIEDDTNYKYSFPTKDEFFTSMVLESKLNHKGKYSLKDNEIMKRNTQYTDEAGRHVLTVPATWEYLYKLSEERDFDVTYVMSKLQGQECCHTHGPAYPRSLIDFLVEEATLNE
Protocol: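 Universal 'all 10-mer' protein binding microarrays (Agilent AMADID 015681) probed with GST-tagged S. cerevisiae TFs (full-length or DBD) made by in vitro transcription/translation (PURExpress), about 100-200 nM. Bound TF was detected with fluorescent anti-GST. Each ungapped 8-mer (which stands for itself and its reverse complement) is scored by the PBM enrichment score (E-score), a modified Wilcoxon-Mann-Whitney statistic from -0.5 to +0.5, computed with the Universal PBM Analysis Suite. Scale: above 0.35 generally sequence-specific binding.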
For ATTTTTCG, the “PBM E-score” value was 0.166.
For GGGTTCAA, the “PBM E-score” value was 0.0118.
In the case of GTTGTGAA, the “PBM E-score” value is reported as 0.0935.
For ACCAAGTA, the “PBM E-score” value was 0.00641.
GATGGAAA was tested, and the “PBM E-score” value was 0.0333.
For TCCTCTCA, the “PBM E-score” value was 0.0272.
In the case of CTATTGTC, the “PBM E-score” value is reported as -0.00458.
For ACGGGAAT, the “PBM E-score” value was -0.0416.
CCATACAA was tested, and the “PBM E-score” value was 0.0687.
For AAAAATCA, the “PBM E-score” value was 0.124.
For GTTCAGGA, the “PBM E-score” value was -0.135.
In the case of CCGAAAAA, the “PBM E-score” value is reported as 0.0899.
For AGGTGTCA, the “PBM E-score” value was -0.00693.
For TGTTCAAA, the “PBM E-score” value was 0.0771.
For GGGTGCGA, the “PBM E-score” value was -0.00811.
In the case of CTTAGGAA, the “PBM E-score” value is reported as -0.129.
With GAGACGAC the “PBM E-score” value was -0.0834.
For CAAATTAC, the “PBM E-score” value was 0.144.
For GTCTGGCA, the “PBM E-score” value was -0.0671.
AACTTAGG was tested, and the “PBM E-score” value was 0.00592.
With TCAACTAA the “PBM E-score” value was 0.124.
GACGTTAA was tested, and the “PBM E-score” value was 0.142.
In the case of AGAGTAAC, the “PBM E-score” value is reported as -0.00051.
ACGATAGG was tested, and the “PBM E-score” value was -0.033.
TGTGTAAA was tested, and the “PBM E-score” value was 0.167.
ACCGTAGT was tested, and the “PBM E-score” value was -0.1.
For ATCATAGG, the “PBM E-score” value was -0.0419.
AACAATCA was tested, and the “PBM E-score” value was 0.165.
With CAATCACA the “PBM E-score” value was 0.143.
ATGAATTC was tested, and the “PBM E-score” value was 0.204.
With AAACCCAA the “PBM E-score” value was 0.185.
For GCGTTAGC, the “PBM E-score” value was -0.00029.
ACCCGAAG was tested, and the “PBM E-score” value was -0.0881.
CACTTTCC was tested, and the “PBM E-score” value was 0.0732.
AAGTTGCG was tested, and the “PBM E-score” value was 0.00812.
With AATGTTGC the “PBM E-score” value was 0.0681.
ATAGCAAT was tested, and the “PBM E-score” value was 0.215.
With GGTTGCGA the “PBM E-score” value was 0.022.
In the case of CGGGGTTA, the “PBM E-score” value is reported as 0.0134.
For AAGGCCGC, the “PBM E-score” value was -0.0825.
With AGATTGGC the “PBM E-score” value was -0.133.
With CCCGCTCC the “PBM E-score” value was -0.347.
CAGGCACG was tested, and the “PBM E-score” value was -0.127.
TATCGAGA was tested, and the “PBM E-score” value was -0.0314.
With AGAGCAGG the “PBM E-score” value was 0.00606.
For GGTAGCCA, the “PBM E-score” value was -0.00488.
In the case of CCCAGGGG, the “PBM E-score” value is reported as -0.423.
In the case of ACAAGACT, the “PBM E-score” value is reported as -0.0784.
For CTTTCATA, the “PBM E-score” value was 0.252.
With GTGACAAC the “PBM E-score” value was 0.0975.
With AAGCCTCC the “PBM E-score” value was -0.0921.
TAGGGAAA was tested, and the “PBM E-score” value was 0.145.
In the case of CTGTGTAA, the “PBM E-score” value is reported as -0.0425.
With AATCATAT the “PBM E-score” value was 0.142.
For CAGGATAC, the “PBM E-score” value was -0.0223.
GAAAGACC was tested, and the “PBM E-score” value was -0.139.
With CGACTCTC the “PBM E-score” value was -0.0925.
In the case of ACGGTTCG, the “PBM E-score” value is reported as -0.163.
For GCTAGAGA, the “PBM E-score” value was 0.0781.
For GAGATGAA, the “PBM E-score” value was 0.043.
In the case of AAAATAGG, the “PBM E-score” value is reported as 0.213.
With CCGGCGCC the “PBM E-score” value was -0.132.
With GGTGGACA the “PBM E-score” value was -0.0281.
AAATTCGG was tested, and the “PBM E-score” value was 0.153.
For CTATATCA, the “PBM E-score” value was 0.264.
With ATAGAGTG the “PBM E-score” value was 0.0278.
With CTTGATTA the “PBM E-score” value was 0.0486.
In the case of ATGACCAG, the “PBM E-score” value is reported as 0.0555.
In the case of AGATGAAC, the “PBM E-score” value is reported as 0.132.
ACGTTCGA was tested, and the “PBM E-score” value was -0.067.
AAAATGTA was tested, and the “PBM E-score” value was 0.163.
GAACCATC was tested, and the “PBM E-score” value was 0.0683.
For CACGCGGA, the “PBM E-score” value was 0.223.
CCCTGACG was tested, and the “PBM E-score” value was -0.168.
In the case of CCCGGGGC, the “PBM E-score” value is reported as -0.331.
ATGTACAC was tested, and the “PBM E-score” value was 0.0542.
With GACCAAAA the “PBM E-score” value was 0.115.
GCGGATAA was tested, and the “PBM E-score” value was 0.156.
For AACTCAGT, the “PBM E-score” value was -0.0297.
In the case of GATAGTCA, the “PBM E-score” value is reported as -0.12.
In the case of GTATGGAA, the “PBM E-score” value is reported as 0.0621.
For GCTCTTAA, the “PBM E-score” value was -0.0627.
With GGGGTAGA the “PBM E-score” value was 0.0701.
CCTGTGAA was tested, and the “PBM E-score” value was 0.0681.
AATAGCTA was tested, and the “PBM E-score” value was 0.0193.
CCGCCAAA was tested, and the “PBM E-score” value was -0.0113.
For AACTACAC, the “PBM E-score” value was 0.0971.
With CCACCCAG the “PBM E-score” value was -0.0491.
For TACACAAA, the “PBM E-score” value was 0.214.
For GGGCTCCA, the “PBM E-score” value was -0.262.
With CAGGTACA the “PBM E-score” value was -0.0994.
In the case of CATATTCC, the “PBM E-score” value is reported as -0.0894.
In the case of AAAGCATA, the “PBM E-score” value is reported as 0.188.
In the case of ATCTATAA, the “PBM E-score” value is reported as 0.0384.
In the case of AAAATCTC, the “PBM E-score” value is reported as 0.0391.
In the case of CTTCGAGC, the “PBM E-score” value is reported as -0.126.
In the case of ATTCGCCA, the “PBM E-score” value is reported as 0.062.
With CTGACCAC the “PBM E-score” value was -0.0928.
With GCCAAGAC the “PBM E-score” value was -0.195.
In the case of GCTAACCA, the “PBM E-score” value is reported as 0.0336.
With AGCCCTAG the “PBM E-score” value was -0.106.
For TCACCTCA, the “PBM E-score” value was 0.0017.
TATTGTAA was tested, and the “PBM E-score” value was 0.0692.
In the case of CGGCTCAA, the “PBM E-score” value is reported as 0.00645.
In the case of AGGCCTCC, the “PBM E-score” value is reported as -0.0772.
In the case of GGATTCAC, the “PBM E-score” value is reported as 0.0513.
ATTGGCTG was tested, and the “PBM E-score” value was -0.112.
With GAGCTTAC the “PBM E-score” value was -0.0111.
With AAGTCGCT the “PBM E-score” value was -0.146.
GGAGGCCC was tested, and the “PBM E-score” value was -0.349.
For CGCCGGGC, the “PBM E-score” value was -0.143.
In the case of CATTAAAA, the “PBM E-score” value is reported as 0.281.
For ATGCTAAT, the “PBM E-score” value was 0.0822.
CGTGATGA was tested, and the “PBM E-score” value was 0.0553.
ACCCTCTG was tested, and the “PBM E-score” value was -0.16.
AAGGCCTA was tested, and the “PBM E-score” value was -0.136.
For CTTTGCGA, the “PBM E-score” value was -0.0112.
ACTTGACG was tested, and the “PBM E-score” value was -0.0458.
GCATGTTA was tested, and the “PBM E-score” value was 0.0238.
In the case of GAAAGGTC, the “PBM E-score” value is reported as -0.0358.
In the case of CGTGTTAG, the “PBM E-score” value is reported as 0.13.
With ACTCATAT the “PBM E-score” value was 0.0829.
With AAAGTGGA the “PBM E-score” value was 0.111.
AGGACGAG was tested, and the “PBM E-score” value was -0.139.
In the case of CTAGTTTA, the “PBM E-score” value is reported as 0.106.
CGCGCTTA was tested, and the “PBM E-score” value was 0.265.
CATTTACA was tested, and the “PBM E-score” value was 0.0781.
GGTTGATA was tested, and the “PBM E-score” value was -0.102.
For GAGAGGCC, the “PBM E-score” value was -0.151.
For AATTGTGT, the “PBM E-score” value was 0.12.
In the case of GTACGTGA, the “PBM E-score” value is reported as 0.00327.
In the case of AGGAAGTG, the “PBM E-score” value is reported as 0.143.
In the case of CCGACACC, the “PBM E-score” value is reported as -0.246.
In the case of GGCTGAAC, the “PBM E-score” value is reported as -0.0311.
For GCGTCTTA, the “PBM E-score” value was -0.103.
With ATGAAATG the “PBM E-score” value was 0.0575.
For GCGCAACA, the “PBM E-score” value was -0.0666.
For CCGGTAAC, the “PBM E-score” value was -0.00983.
ATACGGTG was tested, and the “PBM E-score” value was 0.0843.
For AACTACCT, the “PBM E-score” value was 0.147.
For ACGACGTA, the “PBM E-score” value was 0.0327.
For CTAAAGCC, the “PBM E-score” value was -0.0724.
For ATAAGTTG, the “PBM E-score” value was 0.0657.
ACGATGCC was tested, and the “PBM E-score” value was -0.351.
With ATCAACAA the “PBM E-score” value was 0.228.
CAAGTTAA was tested, and the “PBM E-score” value was 0.127.
With ACTATACT the “PBM E-score” value was 0.194.
For TTCCCCAA, the “PBM E-score” value was -0.00879.
With AAACGACT the “PBM E-score” value was 0.0293.
CTATCATA was tested, and the “PBM E-score” value was 0.12.
For CACGCTTC, the “PBM E-score” value was -0.306.
For CTGTTCAA, the “PBM E-score” value was 0.0116.
For GTGCGCTA, the “PBM E-score” value was 0.0719.
AAATAGCT was tested, and the “PBM E-score” value was -0.00307.
With CCCATTTC the “PBM E-score” value was -0.137.
In the case of CAAAGGCA, the “PBM E-score” value is reported as -0.0657.
In the case of TCGTCCAA, the “PBM E-score” value is reported as 0.0591.
GCATGCCA was tested, and the “PBM E-score” value was -0.126.
ATGGGAAT was tested, and the “PBM E-score” value was -0.0968.
In the case of CAGCATCA, the “PBM E-score” value is reported as -0.0104.
In the case of GCCATTTA, the “PBM E-score” value is reported as 0.0915.
In the case of TATTTTGA, the “PBM E-score” value is reported as 0.126.
CCAGGCCA was tested, and the “PBM E-score” value was -0.256.
With AATGTTCG the “PBM E-score” value was 0.0025.
TAGACAAA was tested, and the “PBM E-score” value was 0.0484.
For CTGCATAC, the “PBM E-score” value was 0.125.
For ATCTCTAG, the “PBM E-score” value was -0.12.
ATACTTTA was tested, and the “PBM E-score” value was 0.224.
CCGTCCCC was tested, and the “PBM E-score” value was -0.338.
In the case of CCGCATGC, the “PBM E-score” value is reported as -0.00346.
With AACTGGCA the “PBM E-score” value was 0.0472.
In the case of CCCAGCAG, the “PBM E-score” value is reported as -0.205.

From the supplement of paper PMC3334620
